Reference: US20260209193A1, “NOVEL INHIBITORS OF DNA DAMAGE RESPONSES FOR CANCER THERAPY” (The Regents of the University of California, priority 2022, published 2026)
Some results were stated once for a whole list of compounds, not compound by compound.

Amino acid sequences for entries named in this document (tags omitted). A change or cut given only in a name is not applied to a line headed by its entry.
UniProt Q13535: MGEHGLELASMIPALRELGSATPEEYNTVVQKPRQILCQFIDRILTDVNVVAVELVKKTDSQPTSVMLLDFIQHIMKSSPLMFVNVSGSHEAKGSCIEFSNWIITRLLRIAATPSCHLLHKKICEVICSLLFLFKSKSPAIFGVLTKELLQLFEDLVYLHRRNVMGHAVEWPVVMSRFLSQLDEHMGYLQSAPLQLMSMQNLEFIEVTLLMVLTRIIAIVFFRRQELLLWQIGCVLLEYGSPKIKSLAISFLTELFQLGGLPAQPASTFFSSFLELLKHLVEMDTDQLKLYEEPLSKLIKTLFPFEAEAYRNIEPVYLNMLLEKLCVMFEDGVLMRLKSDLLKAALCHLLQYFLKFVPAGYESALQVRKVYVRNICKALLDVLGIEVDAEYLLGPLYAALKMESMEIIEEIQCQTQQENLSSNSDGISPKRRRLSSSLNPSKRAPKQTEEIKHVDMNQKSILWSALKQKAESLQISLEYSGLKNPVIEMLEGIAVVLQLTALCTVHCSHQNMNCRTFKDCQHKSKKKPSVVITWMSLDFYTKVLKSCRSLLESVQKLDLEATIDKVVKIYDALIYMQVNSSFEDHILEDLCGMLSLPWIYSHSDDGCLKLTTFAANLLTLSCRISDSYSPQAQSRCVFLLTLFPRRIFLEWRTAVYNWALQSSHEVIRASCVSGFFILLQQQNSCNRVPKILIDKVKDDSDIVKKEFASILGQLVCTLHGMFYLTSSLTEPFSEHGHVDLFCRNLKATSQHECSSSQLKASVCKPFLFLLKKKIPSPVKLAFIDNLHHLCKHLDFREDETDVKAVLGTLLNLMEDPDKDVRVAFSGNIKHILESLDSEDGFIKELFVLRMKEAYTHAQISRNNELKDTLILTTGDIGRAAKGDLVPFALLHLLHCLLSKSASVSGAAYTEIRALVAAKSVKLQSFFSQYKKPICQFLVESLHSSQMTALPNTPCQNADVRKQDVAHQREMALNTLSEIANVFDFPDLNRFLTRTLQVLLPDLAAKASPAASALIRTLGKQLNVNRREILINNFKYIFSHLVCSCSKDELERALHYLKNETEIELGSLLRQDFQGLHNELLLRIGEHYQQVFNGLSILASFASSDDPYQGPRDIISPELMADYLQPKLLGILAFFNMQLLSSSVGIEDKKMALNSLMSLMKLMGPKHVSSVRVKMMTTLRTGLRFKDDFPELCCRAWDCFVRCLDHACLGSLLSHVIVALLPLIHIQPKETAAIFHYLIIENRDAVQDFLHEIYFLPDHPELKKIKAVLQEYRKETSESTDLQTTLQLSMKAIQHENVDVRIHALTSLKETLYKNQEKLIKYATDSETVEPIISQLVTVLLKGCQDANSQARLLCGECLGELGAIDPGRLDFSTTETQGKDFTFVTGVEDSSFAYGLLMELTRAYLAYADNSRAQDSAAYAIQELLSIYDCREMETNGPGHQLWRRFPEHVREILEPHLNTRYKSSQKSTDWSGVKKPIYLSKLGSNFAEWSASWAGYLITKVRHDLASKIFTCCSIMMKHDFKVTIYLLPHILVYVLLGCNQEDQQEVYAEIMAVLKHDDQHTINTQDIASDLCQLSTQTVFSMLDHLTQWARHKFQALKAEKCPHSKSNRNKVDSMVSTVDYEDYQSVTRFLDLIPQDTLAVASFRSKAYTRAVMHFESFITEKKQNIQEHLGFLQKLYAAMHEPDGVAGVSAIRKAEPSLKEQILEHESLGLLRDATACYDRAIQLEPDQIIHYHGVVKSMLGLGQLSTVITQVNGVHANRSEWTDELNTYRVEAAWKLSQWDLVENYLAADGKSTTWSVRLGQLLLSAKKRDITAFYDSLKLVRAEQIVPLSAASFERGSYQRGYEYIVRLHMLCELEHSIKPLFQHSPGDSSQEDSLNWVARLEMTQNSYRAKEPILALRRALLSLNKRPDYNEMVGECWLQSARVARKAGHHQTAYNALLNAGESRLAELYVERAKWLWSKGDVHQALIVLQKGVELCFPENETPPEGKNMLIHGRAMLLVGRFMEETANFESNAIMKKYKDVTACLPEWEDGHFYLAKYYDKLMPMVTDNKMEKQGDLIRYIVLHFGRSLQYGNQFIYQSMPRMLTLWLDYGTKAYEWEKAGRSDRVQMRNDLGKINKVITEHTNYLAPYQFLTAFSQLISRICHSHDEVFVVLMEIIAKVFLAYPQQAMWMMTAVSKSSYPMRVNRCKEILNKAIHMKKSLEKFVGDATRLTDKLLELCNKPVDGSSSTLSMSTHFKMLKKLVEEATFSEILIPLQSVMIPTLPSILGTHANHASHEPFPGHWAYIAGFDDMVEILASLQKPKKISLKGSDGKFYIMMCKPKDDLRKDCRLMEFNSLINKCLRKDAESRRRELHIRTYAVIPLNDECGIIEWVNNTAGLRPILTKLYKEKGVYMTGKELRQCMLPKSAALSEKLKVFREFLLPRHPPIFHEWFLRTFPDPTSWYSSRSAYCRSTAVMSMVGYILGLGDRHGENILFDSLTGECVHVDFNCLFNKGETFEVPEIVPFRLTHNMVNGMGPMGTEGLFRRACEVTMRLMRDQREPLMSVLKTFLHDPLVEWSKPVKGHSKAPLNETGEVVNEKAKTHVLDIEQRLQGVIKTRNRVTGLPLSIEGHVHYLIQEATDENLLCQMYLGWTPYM
UniProt P09874, whole entry, species assumed: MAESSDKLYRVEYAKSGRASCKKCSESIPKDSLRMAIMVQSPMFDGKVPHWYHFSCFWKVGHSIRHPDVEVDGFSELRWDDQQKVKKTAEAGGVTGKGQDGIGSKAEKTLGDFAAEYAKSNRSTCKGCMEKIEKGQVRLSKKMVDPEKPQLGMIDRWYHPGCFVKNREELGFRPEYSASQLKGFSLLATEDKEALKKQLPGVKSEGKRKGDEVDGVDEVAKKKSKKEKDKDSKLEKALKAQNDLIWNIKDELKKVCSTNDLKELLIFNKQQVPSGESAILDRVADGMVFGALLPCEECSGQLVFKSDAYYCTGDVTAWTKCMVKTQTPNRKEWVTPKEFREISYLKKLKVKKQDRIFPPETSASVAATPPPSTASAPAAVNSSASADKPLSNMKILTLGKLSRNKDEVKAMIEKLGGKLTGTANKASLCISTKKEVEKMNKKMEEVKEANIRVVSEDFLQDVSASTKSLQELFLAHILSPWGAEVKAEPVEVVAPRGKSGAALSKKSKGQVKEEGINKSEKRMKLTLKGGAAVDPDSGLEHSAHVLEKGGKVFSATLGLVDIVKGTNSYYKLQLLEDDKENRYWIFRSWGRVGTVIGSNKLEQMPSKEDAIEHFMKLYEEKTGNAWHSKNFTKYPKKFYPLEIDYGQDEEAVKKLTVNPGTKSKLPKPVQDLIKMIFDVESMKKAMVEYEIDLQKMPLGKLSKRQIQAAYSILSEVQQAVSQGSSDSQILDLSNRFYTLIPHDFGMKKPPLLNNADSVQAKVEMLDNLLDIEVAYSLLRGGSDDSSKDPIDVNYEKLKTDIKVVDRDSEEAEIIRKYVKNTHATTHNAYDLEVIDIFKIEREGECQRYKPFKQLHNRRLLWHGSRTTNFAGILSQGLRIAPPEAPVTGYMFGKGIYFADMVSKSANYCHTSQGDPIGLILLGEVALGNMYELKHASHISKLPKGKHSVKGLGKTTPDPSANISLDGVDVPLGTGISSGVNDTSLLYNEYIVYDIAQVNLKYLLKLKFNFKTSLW

Experiments:
[1] = molecular target: T1, ATR (Homo sapiens, UniProt Q13535); assay: ATR-mediated signaling: phosphorylation of Rad17 Ser 645 and CHK1 Ser 345 in cells; assay type: cell-based; settings: 1 μM and 2 μM; PC3 cells
T1 construct: endogenous in cells; host or cells: PC3, C4-2B/MR, SUM149PT-BRCA1rev, UWB1.289+BRCA1, MDA-MB-231
Protocol: PARP inhibitor-resistant cells are increasingly dependent on ATR for survival, and ATR inhibition disrupts restored HR and fork protection pathways in PARP inhibitor resistant BRCA-deficient cancer cells. For ATR kinase in vitro assays, ATR was immunoprecipitated with 3 μg of anti-ATR antibody (Bethyl Laboratories, A300-137A) from 1 mg of cell lysate. […] The IC50 was determined by the enzyme profiling service of Eurofins Cerep (France). […] The phosphorylation of CHK1 at Ser 345 sites was used as a bio-marker of ATR-mediated signaling pathway. The phosphorylation of Rad17 at Ser 645, which is a substrate of ATR, was also examined.
ATR inhibition was assessed in C4-2B/MR cells. Considering ATM is a homologous protein of ATR, we also detected the effect of JC046 analogs on the phosphorylation of KAP1 at Ser 824 and CHK2 at Thr 68 sites, which were used as markers of ATM signaling pathway.

[2] = molecular target: T2, PARP1 (Homo sapiens, UniProt P09874); assay: PARP1 trapping, chromatin fractionation (chromatin-bound fraction); assay type: cell-based; settings: 0.5 μM; PC3 cells
T2 construct: endogenous in cells; host or cells: PC3
Text: The trapped PARP1 forms a toxic lesion and stalls the progress of replication forks. The replication fork collapses in BRCA1/2-deficient cancer cells, and then results in cell death. […] Six cancer cell lines were used in this assay, including two breast cancer cell lines, BRCA1-mutunt SUM149PT-BRCA1mut and SUM149PT-BRCA1rev where deleterious BRCA1 mutation is reverted to form a functional BRCA1, two ovarian cancer cell lines, BRCA1-null UWB1.289 and UWB1.289+BRCA1, a stable cell line in which wild-type BRCA1 function has been restored, and two prostate cancer cell lines, enzalutamide resistant C4-2B/MR which is homologous recombination (HR)-deficient due to Rad51 mutation, and enzalutamide insensitive PC3 which is HR-proficient.

O=C1/C(=C/c2ccc(F)c(F)c2)CC(NC(=O)c2ccc(OCCN3CCCCC3)c([N+](=O)[O-])c2)C/C1=C\c1ccc(F)c(F)c1 (stereo not drawn) [JCS105, N-(3,5-Bis((E)-3,4-difluorobenzylidene)-4-oxocyclohexyl)-3-nitro-4-(2-(piperidin-1-yl)ethoxy)benzamide]
Olaparib or UV induced phosphorylation of Rad17 at Ser 645 and CHK1 at Ser 345 [1]: inhibited
PARP1 trapped on DNA lesions [2]: trapped

CCN(CC)CCOc1ccc(C(=O)NC2C/C(=C\c3ccc(F)c(F)c3)C(=O)/C(=C/c3ccc(F)c(F)c3)C2)cc1[N+](=O)[O-] (stereo not drawn) [JCS106, N-(3,5-Bis((E)-3,4-difluorobenzylidene)-4-oxocyclohexyl)-4-(2-(diethylamino)ethoxy)-3-nitrobenzamide]
Olaparib or UV induced phosphorylation of Rad17 at Ser 645 and CHK1 at Ser 345 [1]: inhibited
PARP1 trapped on DNA lesions [2]: trapped

O=C1/C(=C/c2ccc(F)c(F)c2)CC(NC(=O)c2ccc(OCCN(CCO)CCO)cc2)C/C1=C\c1ccc(F)c(F)c1 (stereo not drawn) [JCS107, N-(3,5-Bis((E)-3,4-difluorobenzylidene)-4-oxocyclohexyl)-4-(2-(bis(2-hydroxyethyl)amino)ethoxy)-benzamide]
Olaparib or UV induced phosphorylation of Rad17 at Ser 645 and CHK1 at Ser 345 [1]: inhibited
PARP1 trapped on DNA lesions [2]: trapped

COCCN(CCOc1ccccc1)CCOc1ccc(C(=O)NC2C/C(=C\c3ccc(F)c(F)c3)C(=O)/C(=C/c3ccc(F)c(F)c3)C2)cc1 (stereo not drawn) [JCS108, N-(3,5-Bis((E)-3,4-difluorobenzylidene)-4-oxocyclohexyl)-4-(2-((2-methoxyethyl)(2-phenoxyethyl)amino)ethoxy)benzamide]
Olaparib or UV induced phosphorylation of Rad17 at Ser 645 and CHK1 at Ser 345 [1]: inhibited
PARP1 trapped on DNA lesions [2]: trapped

CCN(CCOC)CCOc1ccc(C(=O)NC2C/C(=C\c3ccc(F)c(F)c3)C(=O)/C(=C/c3ccc(F)c(F)c3)C2)cc1 (stereo not drawn) [JCS109, N-(3,5-Bis((E)-3,4-difluorobenzylidene)-4-oxocyclohexyl)-4-(2-(ethyl(2-methoxyethyl)amino)eth-oxy)benzamide]
Olaparib or UV induced phosphorylation of Rad17 at Ser 645 and CHK1 at Ser 345 [1]: inhibited
PARP1 trapped on DNA lesions [2]: trapped

COCCN(CCOc1ccc(C(=O)NC2C/C(=C\c3ccc(F)c(F)c3)C(=O)/C(=C/c3ccc(F)c(F)c3)C2)cc1)CC1CCCO1 (stereo not drawn) [JCS110, N-(3,5-Bis((E)-3,4-difluorobenzylidene)-4-oxocyclohexyl)-4-(2-((2-methoxyethyl)((tetrahydrofuran-2-yl)methyl)amino)ethoxy)benzamide]
Olaparib or UV induced phosphorylation of Rad17 at Ser 645 and CHK1 at Ser 345 [1]: inhibited
PARP1 trapped on DNA lesions [2]: trapped

CCN(CC)CCOc1ccc(C(=O)NC2C/C(=C\c3ccc(F)c(F)c3)C(=O)/C(=C/c3ccc(F)c(F)c3)C2)cc1OC (stereo not drawn) [JCS111, N-(3,5-Bis((E)-3,4-difluorobenzylidene)-4-oxocyclohexyl)-4-(2-(diethylamino)ethoxy)-3-methoxy-benzamide]
Olaparib or UV induced phosphorylation of Rad17 at Ser 645 and CHK1 at Ser 345 [1]: inhibited
PARP1 trapped on DNA lesions [2]: trapped

CCN(CC)CCOc1ccc(C(=O)NC2C/C(=C\c3ccc(F)c(F)c3)C(=O)/C(=C/c3ccc(F)c(F)c3)C2)c(C)c1 (stereo not drawn) [JCS112, N-(3,5-Bis((E)-3,4-difluorobenzylidene)-4-oxocyclohexyl)-4-(2-(diethylamino)ethoxy)-2-methyl-benzamide]
Olaparib or UV induced phosphorylation of Rad17 at Ser 645 and CHK1 at Ser 345 [1]: inhibited
PARP1 trapped on DNA lesions [2]: trapped

Cc1cc(OCCN2CCCCC2)ccc1C(=O)NC1C/C(=C\c2ccc(F)c(F)c2)C(=O)/C(=C/c2ccc(F)c(F)c2)C1 (stereo not drawn) [JCS113, N-(3,5-Bis((E)-3,4-difluorobenzylidene)-4-oxocyclohexyl)-2-methyl-4-(2-(piperidin-1-yl)ethoxy)-benzamide]
Olaparib or UV induced phosphorylation of Rad17 at Ser 645 and CHK1 at Ser 345 [1]: inhibited
PARP1 trapped on DNA lesions [2]: trapped

O=C1/C(=C/c2ccc(F)c(F)c2)CC(NC(=O)c2cnc(OCCN3CCCCC3)cn2)C/C1=C\c1ccc(F)c(F)c1 (stereo not drawn) [JCS114, N-(3,5-Bis((E)-3,4-difluorobenzylidene)-4-oxocyclohexyl)-5-(2-(piperidin-1-yl)ethoxy)pyrazine-2-carboxamide]
Olaparib or UV induced phosphorylation of Rad17 at Ser 645 and CHK1 at Ser 345 [1]: inhibited
PARP1 trapped on DNA lesions [2]: trapped

CCN(CC)CCOc1ccc(C(=O)NC2C/C(=C\c3ccc(F)c(F)c3)C(=O)/C(=C/c3ccc(F)c(F)c3)C2)cn1 (stereo not drawn) [JCS115, N-(3,5-Bis((E)-3,4-difluorobenzylidene)-4-oxocyclohexyl)-6-(2-(diethylamino)ethoxy)nicotinamide]
Olaparib or UV induced phosphorylation of Rad17 at Ser 645 and CHK1 at Ser 345 [1]: inhibited
PARP1 trapped on DNA lesions [2]: trapped

O=C1/C(=C/c2ccc(F)c(F)c2)CC(NC(=O)c2ccc(OCCN3CCCCC3)nc2)C/C1=C\c1ccc(F)c(F)c1 (stereo not drawn) [JCS116, N-(3,5-Bis((E)-3,4-difluorobenzylidene)-4-oxocyclohexyl)-6-(2-(piperidin-1-yl)ethoxy)nicotinamide]
Olaparib or UV induced phosphorylation of Rad17 at Ser 645 and CHK1 at Ser 345 [1]: inhibited
PARP1 trapped on DNA lesions [2]: trapped

CCN(CC)CCOc1ccc(C(=O)NC2C/C(=C\c3ccc(F)c(F)c3)C(=O)/C(=C/c3ccc(F)c(F)c3)C2)nc1 (stereo not drawn) [JCS131, N-(3,5-Bis((E)-3,4-difluorobenzylidene)-4-oxocyclohexyl)-5-(2-(diethylamino)ethoxy)picolinamide]
Olaparib or UV induced phosphorylation of Rad17 at Ser 645 and CHK1 at Ser 345 [1]: inhibited
PARP1 trapped on DNA lesions [2]: trapped

O=C1/C(=C/c2ccc(F)c(F)c2)CC(NC(=O)c2ccc(OCCN3CCCCC3)cn2)C/C1=C\c1ccc(F)c(F)c1 (stereo not drawn) [JCS132, N-(3,5-Bis((E)-3,4-difluorobenzylidene)-4-oxocyclohexyl)-5-(2-(piperidin-1-yl)ethoxy)picolinamide]
Olaparib or UV induced phosphorylation of Rad17 at Ser 645 and CHK1 at Ser 345 [1]: inhibited
PARP1 trapped on DNA lesions [2]: trapped

CCN(CC)CCOc1nncc2cc(C(=O)NC3C/C(=C\c4ccc(F)c(F)c4)C(=O)/C(=C/c4ccc(F)c(F)c4)C3)ccc12 (stereo not drawn) [JCS133, N-(3,5-Bis((E)-3,4-difluorobenzylidene)-4-oxocyclohexyl)-1-(2-(diethylamino)ethoxy)phthalazine-6-carboxamide]
Olaparib or UV induced phosphorylation of Rad17 at Ser 645 and CHK1 at Ser 345 [1]: inhibited
PARP1 trapped on DNA lesions [2]: trapped

COCCN(CCOC)CCOc1cnc(C(=O)NC2C/C(=C\c3ccc(F)c(F)c3)C(=O)/C(=C/c3ccc(F)c(F)c3)C2)cn1 (stereo not drawn) [JCS134, N-(3,5-Bis((E)-3,4-difluorobenzylidene)-4-oxocyclohexyl)-5-(2-(bis(2-methoxyethyl)amino)ethoxy)-pyrazine-2-carboxamide]
Olaparib or UV induced phosphorylation of Rad17 at Ser 645 and CHK1 at Ser 345 [1]: inhibited
PARP1 trapped on DNA lesions [2]: trapped

O=C1/C(=C/c2ccc(F)c(F)c2)CC(NC(=O)c2ccc(OCCN3CCN4CCCC4C3)cc2)C/C1=C\c1ccc(F)c(F)c1 (stereo not drawn) [JCS135, N-(3,5-Bis((E)-3,4-difluorobenzylidene)-4-oxocyclohexyl)-4-(2-(hexahydropyrrolo[1,2-a]pyrazin-2(1H)-yl)ethoxy)benzamide]
Olaparib or UV induced phosphorylation of Rad17 at Ser 645 and CHK1 at Ser 345 [1]: inhibited
PARP1 trapped on DNA lesions [2]: trapped

CCN1CCC[C@H]1CNc1ncc(C(=O)NC2C/C(=C\c3ccc(F)c(F)c3)C(=O)/C(=C/c3ccc(F)c(F)c3)C2)cn1 (stereo partly drawn) [JCS136, N-(3,5-Bis((E)-3,4-difluorobenzylidene)-4-oxocyclohexyl)-2-((((S)-1-ethylpyrrolidin-2-yl)methyl)-amino)pyrimidine-5-carboxamide]
Olaparib or UV induced phosphorylation of Rad17 at Ser 645 and CHK1 at Ser 345 [1]: inhibited
PARP1 trapped on DNA lesions [2]: trapped

O=C1/C(=C/c2ccc(F)c(F)c2)CC(NC(=O)c2ccc(OCCN3CC4OCCOC4C3)cc2)C/C1=C\c1ccc(F)c(F)c1 (stereo not drawn) [JCS137, N-(3,5-Bis((E)-3,4-difluorobenzylidene)-4-oxocyclohexyl)-4-(2-(hexahydro-6H-[1,4]dioxino[2,3-c]pyrrol-6-yl)ethoxy)benzamide]
Olaparib or UV induced phosphorylation of Rad17 at Ser 645 and CHK1 at Ser 345 [1]: inhibited
PARP1 trapped on DNA lesions [2]: trapped

O=C1/C(=C/c2ccc(F)c(F)c2)CC(NC(=O)c2ccc(OCCN3CC4CCCC4C3)cc2)C/C1=C\c1ccc(F)c(F)c1 (stereo not drawn) [JCS138, N-(3,5-Bis((E)-3,4-difluorobenzylidene)-4-oxocyclohexyl)-4-(2-(hexahydrocyclopenta[c]pyrrol-2(1H)-yl)ethoxy)benzamide]
Olaparib or UV induced phosphorylation of Rad17 at Ser 645 and CHK1 at Ser 345 [1]: inhibited
PARP1 trapped on DNA lesions [2]: trapped

CCN1CCC[C@H]1CNc1ccc(C(=O)NC2C/C(=C\c3ccc(F)c(F)c3)C(=O)/C(=C/c3ccc(F)c(F)c3)C2)c(C#N)c1 (stereo partly drawn) [JCS139, N-(3,5-Bis((E)-3,4-difluorobenzylidene)-4-oxocyclohexyl)-2-cyano-4-((((S)-1-ethylpyrrolidin-2-yl)methyl)amino)benzamide]
Olaparib or UV induced phosphorylation of Rad17 at Ser 645 and CHK1 at Ser 345 [1]: inhibited
PARP1 trapped on DNA lesions [2]: trapped
